Part of at least one peptide drawing is inferred or uncertain, most often the ends.
Tests used:
[1] = biological target: T1, Granzyme B in MC38 tumors (Mus musculus, UniProt P04187); experiment: PET imaging monitoring of tumor anti-PD-1 immunotherapy; type: in vivo, C57 mice; conditions: 200 μg anti-PD-1 antibody on day 0, 3, 6, imaging on day 9, 0.5 h after injection
T1 construct: from tissue; host or cells: MC38 tumors in living C57 mice
T1 sequence (P04187 21-247): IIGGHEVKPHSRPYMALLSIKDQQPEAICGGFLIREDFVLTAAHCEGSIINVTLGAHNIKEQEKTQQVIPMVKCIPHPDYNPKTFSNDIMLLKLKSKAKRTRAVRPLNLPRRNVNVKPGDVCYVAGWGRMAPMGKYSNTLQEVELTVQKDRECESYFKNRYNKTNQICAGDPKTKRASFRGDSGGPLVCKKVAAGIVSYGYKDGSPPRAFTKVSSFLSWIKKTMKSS

By UniProt entry, the sequences of proteins in these tests, tags left out. Residues count along the entry.
UniProt P10144, 21-247, species assumed: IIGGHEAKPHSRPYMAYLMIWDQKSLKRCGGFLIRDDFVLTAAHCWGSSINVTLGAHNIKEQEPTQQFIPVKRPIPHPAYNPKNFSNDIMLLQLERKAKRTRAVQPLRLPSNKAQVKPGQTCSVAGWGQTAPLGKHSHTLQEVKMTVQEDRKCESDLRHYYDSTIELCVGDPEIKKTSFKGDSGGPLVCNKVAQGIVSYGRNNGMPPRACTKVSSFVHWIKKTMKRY

[2] = biological target: T1, Granzyme B in MC38 tumors; experiment: Correlation of PET tumor uptake with Granzyme B expression by Western blot; type: in vivo, C57 mice; conditions: 7.4 MBq via tail vein, PET/CT 0.5 h after injection
Granzyme B = Granzyme B (Homo sapiens, UniProt P10144); experiment: In vitro Granzyme B binding specificity (coated ELISA plate, gamma counter); conditions: 7.4 KBq, 0.5 h at room temperature, versus control group

## CC[C@H](C)[C@H](NC(=O)Cc1cccc(CNC(=O)C[C@H](NC(=O)C[C@H](NC(=O)CN2CCN(CC(=O)O)CCN(CC(=O)O)CCN(CC(=O)O)CC2)C(=O)O)C(=O)O)c1)C(=O)N[C@H]1CCc2cccc3c2N(C1=O)[C@H](C(=O)NCc1cn[nH]n1)C3 [^68Ga-labeled DOTA complex, metal not drawn]
[1]
  uptake level in the tumor as discriminator of response to anti-PD-1 immunotherapy: could well distinguish whether the tumor was responsive to anti-PD-1 immunotherapy
[2]
  correlation of uptake value in MC38 tumors with expression level of Granzyme B by Western blot: good linear correlation
Granzyme B
  binding to Granzyme B: significantly higher than that of the control group

— US20240408248A1, “GRANZYME B-TARGETING COMPLEX, RADIOPHARMACEUTICAL, PREPARATION METHOD THEREFOR AND USE THEREOF” (priority 2021, published 2024)
